According to the supplement of paper PMC10849652:
Some of the results follow.

The chains behind the UniProt entries cited, without tags or fusion partners. Where a name states a change or a piece, a line headed by the entry shows the natural chain unless it says otherwise.
UniProt P55081: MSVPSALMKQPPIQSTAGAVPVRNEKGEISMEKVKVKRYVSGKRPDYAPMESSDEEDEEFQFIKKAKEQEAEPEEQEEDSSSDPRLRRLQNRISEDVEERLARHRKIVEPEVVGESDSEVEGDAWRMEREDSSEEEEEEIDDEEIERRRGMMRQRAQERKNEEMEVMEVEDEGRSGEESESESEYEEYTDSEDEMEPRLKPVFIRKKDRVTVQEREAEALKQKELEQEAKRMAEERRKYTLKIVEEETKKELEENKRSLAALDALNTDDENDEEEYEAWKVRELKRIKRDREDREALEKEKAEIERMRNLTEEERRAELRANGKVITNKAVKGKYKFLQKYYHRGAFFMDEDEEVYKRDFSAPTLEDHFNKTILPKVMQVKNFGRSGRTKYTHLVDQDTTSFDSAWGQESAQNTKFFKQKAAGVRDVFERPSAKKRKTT
UniProt Q7L2J0: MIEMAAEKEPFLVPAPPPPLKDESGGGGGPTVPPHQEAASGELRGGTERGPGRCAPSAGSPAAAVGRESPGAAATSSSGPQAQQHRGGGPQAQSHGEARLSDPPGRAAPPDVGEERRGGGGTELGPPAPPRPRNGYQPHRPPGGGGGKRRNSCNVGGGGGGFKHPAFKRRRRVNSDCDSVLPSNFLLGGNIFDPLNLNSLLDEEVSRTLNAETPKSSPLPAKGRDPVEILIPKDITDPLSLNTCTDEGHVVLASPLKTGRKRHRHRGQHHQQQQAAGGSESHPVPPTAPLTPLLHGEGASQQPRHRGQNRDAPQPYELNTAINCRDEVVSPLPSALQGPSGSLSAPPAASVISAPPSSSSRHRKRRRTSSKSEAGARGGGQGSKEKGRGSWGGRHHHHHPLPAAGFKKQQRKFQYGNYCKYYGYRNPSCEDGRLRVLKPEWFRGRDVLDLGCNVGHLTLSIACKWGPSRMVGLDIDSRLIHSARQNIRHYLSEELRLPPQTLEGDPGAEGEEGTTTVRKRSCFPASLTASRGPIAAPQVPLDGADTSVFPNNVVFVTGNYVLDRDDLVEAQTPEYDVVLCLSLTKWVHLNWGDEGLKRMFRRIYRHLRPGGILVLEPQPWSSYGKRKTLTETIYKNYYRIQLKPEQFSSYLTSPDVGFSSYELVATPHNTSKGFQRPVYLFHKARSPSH
UniProt Q71SY5: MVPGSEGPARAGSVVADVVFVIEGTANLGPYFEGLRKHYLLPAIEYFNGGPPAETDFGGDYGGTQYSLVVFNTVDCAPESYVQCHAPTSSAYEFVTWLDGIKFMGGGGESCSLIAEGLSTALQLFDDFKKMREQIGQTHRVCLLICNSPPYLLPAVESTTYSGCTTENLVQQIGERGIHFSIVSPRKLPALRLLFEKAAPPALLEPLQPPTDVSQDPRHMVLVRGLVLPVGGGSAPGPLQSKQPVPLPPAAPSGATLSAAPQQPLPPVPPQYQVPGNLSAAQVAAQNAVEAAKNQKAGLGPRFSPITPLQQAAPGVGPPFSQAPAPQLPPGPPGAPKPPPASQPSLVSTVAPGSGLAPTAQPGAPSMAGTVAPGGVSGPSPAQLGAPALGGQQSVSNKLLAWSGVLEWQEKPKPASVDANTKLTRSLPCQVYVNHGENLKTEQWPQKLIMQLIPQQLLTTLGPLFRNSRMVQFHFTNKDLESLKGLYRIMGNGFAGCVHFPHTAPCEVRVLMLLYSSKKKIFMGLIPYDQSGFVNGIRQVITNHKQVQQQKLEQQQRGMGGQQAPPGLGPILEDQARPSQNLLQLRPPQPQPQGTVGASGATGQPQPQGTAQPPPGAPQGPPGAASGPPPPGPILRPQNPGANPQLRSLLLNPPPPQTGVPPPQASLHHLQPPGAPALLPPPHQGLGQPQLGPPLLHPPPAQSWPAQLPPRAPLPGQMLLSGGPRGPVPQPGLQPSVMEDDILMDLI
UniProt Q14814: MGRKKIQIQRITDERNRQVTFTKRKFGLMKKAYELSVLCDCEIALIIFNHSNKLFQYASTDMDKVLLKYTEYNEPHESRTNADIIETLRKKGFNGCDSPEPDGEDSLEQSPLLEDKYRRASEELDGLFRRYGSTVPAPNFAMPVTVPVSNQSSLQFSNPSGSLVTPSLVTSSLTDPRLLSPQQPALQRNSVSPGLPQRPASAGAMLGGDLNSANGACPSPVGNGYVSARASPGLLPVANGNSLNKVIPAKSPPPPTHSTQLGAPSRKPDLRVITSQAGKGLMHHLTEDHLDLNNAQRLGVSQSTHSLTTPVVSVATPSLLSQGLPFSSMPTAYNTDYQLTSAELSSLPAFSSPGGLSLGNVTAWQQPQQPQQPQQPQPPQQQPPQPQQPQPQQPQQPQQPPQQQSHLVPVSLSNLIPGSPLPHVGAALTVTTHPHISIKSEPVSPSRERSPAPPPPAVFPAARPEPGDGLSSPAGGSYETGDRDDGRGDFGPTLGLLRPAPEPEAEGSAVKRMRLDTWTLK
UniProt P31153, whole entry, looked up: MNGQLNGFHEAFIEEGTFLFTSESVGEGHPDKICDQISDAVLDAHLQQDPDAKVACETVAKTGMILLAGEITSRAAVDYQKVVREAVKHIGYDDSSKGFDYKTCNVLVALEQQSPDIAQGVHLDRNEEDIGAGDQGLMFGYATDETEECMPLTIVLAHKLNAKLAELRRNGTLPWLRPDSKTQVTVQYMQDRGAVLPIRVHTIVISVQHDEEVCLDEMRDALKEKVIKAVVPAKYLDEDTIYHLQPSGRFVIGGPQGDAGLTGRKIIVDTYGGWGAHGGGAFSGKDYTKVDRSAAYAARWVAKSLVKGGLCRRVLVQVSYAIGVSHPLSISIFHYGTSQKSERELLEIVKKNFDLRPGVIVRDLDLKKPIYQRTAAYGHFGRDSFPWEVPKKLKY
UniProt Q14676: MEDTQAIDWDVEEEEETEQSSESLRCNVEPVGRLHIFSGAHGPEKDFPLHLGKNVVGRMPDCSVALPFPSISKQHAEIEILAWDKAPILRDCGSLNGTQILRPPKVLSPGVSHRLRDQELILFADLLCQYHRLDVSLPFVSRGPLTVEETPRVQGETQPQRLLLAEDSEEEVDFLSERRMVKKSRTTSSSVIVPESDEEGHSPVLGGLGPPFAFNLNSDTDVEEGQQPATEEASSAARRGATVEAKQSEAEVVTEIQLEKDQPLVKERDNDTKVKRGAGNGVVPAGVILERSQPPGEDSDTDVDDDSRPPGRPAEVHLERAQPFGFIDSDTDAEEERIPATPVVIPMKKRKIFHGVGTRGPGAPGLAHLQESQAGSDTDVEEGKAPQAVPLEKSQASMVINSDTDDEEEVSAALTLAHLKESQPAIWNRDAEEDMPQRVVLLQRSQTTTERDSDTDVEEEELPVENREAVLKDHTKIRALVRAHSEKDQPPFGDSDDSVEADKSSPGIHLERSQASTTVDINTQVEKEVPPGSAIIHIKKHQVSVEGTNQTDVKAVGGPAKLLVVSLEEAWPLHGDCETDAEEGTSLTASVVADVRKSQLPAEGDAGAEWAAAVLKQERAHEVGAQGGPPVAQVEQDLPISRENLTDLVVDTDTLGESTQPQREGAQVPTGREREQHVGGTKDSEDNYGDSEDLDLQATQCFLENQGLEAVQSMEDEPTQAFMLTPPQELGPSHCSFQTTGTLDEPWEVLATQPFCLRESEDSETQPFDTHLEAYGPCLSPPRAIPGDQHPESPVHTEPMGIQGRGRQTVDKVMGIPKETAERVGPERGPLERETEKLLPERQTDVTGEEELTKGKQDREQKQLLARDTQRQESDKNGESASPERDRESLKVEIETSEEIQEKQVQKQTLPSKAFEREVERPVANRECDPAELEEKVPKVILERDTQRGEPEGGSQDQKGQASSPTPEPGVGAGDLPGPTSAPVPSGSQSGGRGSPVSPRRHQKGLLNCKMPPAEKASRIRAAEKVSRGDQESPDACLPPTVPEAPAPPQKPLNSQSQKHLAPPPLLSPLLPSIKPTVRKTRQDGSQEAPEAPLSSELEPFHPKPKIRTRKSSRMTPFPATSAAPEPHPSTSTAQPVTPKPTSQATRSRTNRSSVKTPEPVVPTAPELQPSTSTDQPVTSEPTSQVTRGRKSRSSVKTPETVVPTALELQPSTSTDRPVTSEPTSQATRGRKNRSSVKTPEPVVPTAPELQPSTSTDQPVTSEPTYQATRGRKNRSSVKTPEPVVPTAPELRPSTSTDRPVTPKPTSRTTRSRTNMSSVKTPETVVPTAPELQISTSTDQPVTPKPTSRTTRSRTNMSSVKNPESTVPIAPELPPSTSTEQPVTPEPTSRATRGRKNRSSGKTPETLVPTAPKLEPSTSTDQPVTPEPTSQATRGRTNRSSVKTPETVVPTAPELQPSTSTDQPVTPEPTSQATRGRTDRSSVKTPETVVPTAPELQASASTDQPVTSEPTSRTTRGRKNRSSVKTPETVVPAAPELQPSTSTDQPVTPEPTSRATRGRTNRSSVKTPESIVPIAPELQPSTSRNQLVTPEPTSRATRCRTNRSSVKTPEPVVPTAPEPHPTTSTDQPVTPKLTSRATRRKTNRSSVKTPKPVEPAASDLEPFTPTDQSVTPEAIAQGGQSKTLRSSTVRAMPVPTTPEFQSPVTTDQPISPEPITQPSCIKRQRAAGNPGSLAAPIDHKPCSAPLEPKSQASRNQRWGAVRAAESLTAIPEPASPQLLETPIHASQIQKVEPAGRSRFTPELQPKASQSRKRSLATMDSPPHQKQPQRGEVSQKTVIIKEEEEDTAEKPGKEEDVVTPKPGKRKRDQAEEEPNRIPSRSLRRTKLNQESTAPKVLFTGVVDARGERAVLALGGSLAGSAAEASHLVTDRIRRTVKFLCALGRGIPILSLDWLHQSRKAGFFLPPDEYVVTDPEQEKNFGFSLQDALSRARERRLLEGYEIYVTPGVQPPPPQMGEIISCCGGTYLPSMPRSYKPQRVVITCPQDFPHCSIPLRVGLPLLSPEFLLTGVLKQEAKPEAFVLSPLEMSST
UniProt Q07820, whole entry, looked up: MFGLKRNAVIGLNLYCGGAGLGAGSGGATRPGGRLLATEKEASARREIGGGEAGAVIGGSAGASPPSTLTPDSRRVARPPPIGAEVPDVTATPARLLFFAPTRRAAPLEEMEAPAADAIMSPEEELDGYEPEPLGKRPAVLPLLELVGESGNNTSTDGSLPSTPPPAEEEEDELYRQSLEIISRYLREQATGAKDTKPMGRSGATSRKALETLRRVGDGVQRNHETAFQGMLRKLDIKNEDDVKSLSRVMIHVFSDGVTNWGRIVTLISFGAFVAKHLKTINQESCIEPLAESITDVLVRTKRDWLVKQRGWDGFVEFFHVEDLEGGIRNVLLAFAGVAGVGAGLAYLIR
UniProt Q9ULC4: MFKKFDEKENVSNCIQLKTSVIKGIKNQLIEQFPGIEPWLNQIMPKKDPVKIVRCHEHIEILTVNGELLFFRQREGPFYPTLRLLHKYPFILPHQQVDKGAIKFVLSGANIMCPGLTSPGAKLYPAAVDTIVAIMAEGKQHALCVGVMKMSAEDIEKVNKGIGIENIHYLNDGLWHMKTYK
UniProt Q10469: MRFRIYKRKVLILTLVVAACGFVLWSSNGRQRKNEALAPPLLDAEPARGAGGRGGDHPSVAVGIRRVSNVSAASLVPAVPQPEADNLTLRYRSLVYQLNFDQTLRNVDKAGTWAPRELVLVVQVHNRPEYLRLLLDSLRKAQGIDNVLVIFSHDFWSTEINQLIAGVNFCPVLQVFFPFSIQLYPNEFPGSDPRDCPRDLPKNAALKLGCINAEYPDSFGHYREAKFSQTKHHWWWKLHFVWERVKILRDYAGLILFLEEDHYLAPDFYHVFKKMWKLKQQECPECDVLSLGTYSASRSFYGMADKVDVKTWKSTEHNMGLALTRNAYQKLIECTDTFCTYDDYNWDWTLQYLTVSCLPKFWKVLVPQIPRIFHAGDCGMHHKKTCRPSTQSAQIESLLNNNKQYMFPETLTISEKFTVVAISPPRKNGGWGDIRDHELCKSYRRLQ
UniProt P33992: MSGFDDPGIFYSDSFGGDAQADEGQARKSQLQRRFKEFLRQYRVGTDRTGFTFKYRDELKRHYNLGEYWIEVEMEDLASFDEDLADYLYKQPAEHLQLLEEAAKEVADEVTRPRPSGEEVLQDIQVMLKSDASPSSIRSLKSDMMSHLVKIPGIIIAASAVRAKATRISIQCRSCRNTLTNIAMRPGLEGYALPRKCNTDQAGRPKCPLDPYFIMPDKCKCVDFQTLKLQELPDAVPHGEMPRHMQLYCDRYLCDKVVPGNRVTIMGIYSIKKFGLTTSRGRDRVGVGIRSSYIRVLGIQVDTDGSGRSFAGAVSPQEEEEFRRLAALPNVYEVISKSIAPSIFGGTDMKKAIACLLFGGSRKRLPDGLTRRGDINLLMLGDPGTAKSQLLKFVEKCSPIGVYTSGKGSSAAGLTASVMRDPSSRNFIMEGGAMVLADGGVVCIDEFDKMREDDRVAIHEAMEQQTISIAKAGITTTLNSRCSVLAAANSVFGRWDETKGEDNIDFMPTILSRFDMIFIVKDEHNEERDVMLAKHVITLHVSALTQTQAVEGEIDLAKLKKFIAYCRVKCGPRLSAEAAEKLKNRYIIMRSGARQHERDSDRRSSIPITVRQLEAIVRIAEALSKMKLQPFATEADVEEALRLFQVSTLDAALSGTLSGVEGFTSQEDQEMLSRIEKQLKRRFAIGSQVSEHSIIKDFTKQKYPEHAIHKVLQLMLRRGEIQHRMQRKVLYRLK

Columns and labels:
Assay in all cases: log2 fold change, soluble protein after heating vs DMSO (PISA); higher = thermal stabilisation; K562 cells, 10 uM, 30 min; active = over 0.2 and 3.5 SD of the protein, either way, in both replicates (recomputed)
[1] = compound: Cc1ccc(NC(=O)c2ccc(CN3CC[C@H](N(C)C)C3)c(C(F)(F)F)c2)cc1Nc1nccc(-c2cncnc2)n1 [bafetinib]
Procedure, shortened: (§1)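 K562 cells (2×10^6 cells/mL) were treated with 10 μM compound for 30 min, and aliquots were heated for 3 min over 48°C-58°C. Pooled aliquots were extracted in PBS with 0.5% NP-40 at 4°C, and the supernatant after 21,000xg for 90 min was measured by TMTpro 16plex LC-MS/MS with channel sums equalised. Reported thermal stability, relative to control samples and from duplicates, is a log2 fold change.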

[2] = compound: Cc1cccc(CC(=O)N2CCc3c2ccc(-c2cn(C)c4ncnc(N)c24)c3F)n1
Procedure, shortened: as §1

[3] = compound: Cc1cn(-c2cc(NC(=O)c3ccc(C)c(Nc4nccc(-c5cccnc5)n4)c3)cc(C(F)(F)F)c2)cn1 [nilotinib]
Procedure, shortened: as §1

[4] = compound: Cc1nc(Nc2n[nH]c3c2CN(C(=O)N[C@H](CN(C)C)c2ccccc2)C3(C)C)c2sccc2n1
Procedure, shortened: as §1

[5] = compound: Cc1nc(Nc2ncc(C(=O)Nc3c(C)cccc3Cl)s2)cc(N2CCN(CCO)CC2)n1 [dasatinib]
Procedure, shortened: as §1

[6] = compound: Cc1ncc(-c2ccnc(Nc3ccc(S(C)(=O)=O)cc3)n2)n1C(C)C
Procedure, shortened: as §1

[7] = compound: Cn1cc(-c2ccc3c(c2)CCN3C(=O)Cc2cccc(C(F)(F)F)c2)c2c(N)ncnc21
Procedure, shortened: as §1

[8] = compound: Cn1cc(-c2ccc3nnc(C(F)(F)c4ccc5ncccc5c4)n3n2)cn1
Procedure, shortened: as §1

[9] = compound: Cn1cncc1[C@@](N)(c1ccc(Cl)cc1)c1ccc2c(c1)c(-c1cccc(Cl)c1)cc(=O)n2C [tipifarnib]
Procedure, shortened: as §1

[10] = compound: FC(F)(F)c1ccc(/C=C/c2nc(COc3ccc(CCCCn4ccnn4)cc3)co2)cc1 [mubritinib]
Procedure, shortened: as §1

Row | Target | log2 fold change [1] | log2 fold change [2] | log2 fold change [3] | log2 fold change [4] | log2 fold change [5] | log2 fold change [6] | log2 fold change [7] | log2 fold change [8] | log2 fold change [9] | log2 fold change [10]
1 | MESD (UniProt Q14696) | inactive: -0.062 | inactive: -0.025 | inactive: -0.041 | inactive: 0.023 | inactive: 0.084 | inactive: -0.032 | inactive: -0.076 | inactive: 0.006 | inactive: 0.053 | inactive: 0.013
2 | MFN1 (UniProt Q8IWA4) | inactive: -0.114 | inactive: -0.034 | inactive: -0.005 | inactive: -0.05 | inactive: -0.054 | inactive: 0.02 | inactive: 0.032 | inactive: -0.019 | inactive: 0.123 | inactive: -0.01
3 | MFAP1 (UniProt P55081) | inactive: -0.066 | inactive: -0.037 | inactive: 0.075 | inactive: -0.075 | inactive: 0.054 | inactive: -0.014 | inactive: 0.031 | inactive: 0.007 | inactive: 0.014 | inactive: -0.021
4 | MEPCE (UniProt Q7L2J0) | inactive: -0.12 | inactive: 0.065 | inactive: 0 | active: -0.337 | inactive: -0.116 | inactive: -0.123 | inactive: 0.023 | inactive: 0.061 | inactive: 0.029 | inactive: -0.018
5 | MCUB (UniProt Q9NWR8) | inactive: -0.075 | inactive: 0.062 | inactive: -0.156 | inactive: 0.206 | inactive: -0.134 | inactive: 0.056 | inactive: 0.005 | inactive: -0.019 | inactive: 0 | inactive: -0.027
6 | MED25 isoform 3 (UniProt Q71SY5) | inactive: 0.09 | inactive: 0.217 | inactive: -0.013 | inactive: 0.003 | inactive: -0.049 | inactive: -0.09 | inactive: -0.071 | inactive: 0.076 | inactive: 0.054 | inactive: -0.308
7 | MAT1A (UniProt Q00266) | inactive: -0.083 | inactive: -0.02 | inactive: 0.055 | inactive: -0.023 | inactive: 0.101 | inactive: -0.009 | inactive: -0.021 | inactive: -0.005 | inactive: 0.081 | inactive: 0.058
8 | MFSD4B (UniProt Q5TF39) | inactive: -0.121 | inactive: 0.004 | inactive: 0.004 | inactive: -0.033 | inactive: 0.054 | inactive: 0.005 | inactive: 0.075 | inactive: 0.127 | inactive: 0.006 | inactive: -0.03
9 | MEF2D (UniProt Q14814) | inactive: -0.052 | inactive: -0.012 | inactive: 0.016 | inactive: 0.007 | inactive: -0.072 | inactive: -0.037 | inactive: 0.04 | inactive: 0.006 | inactive: 0.013 | inactive: 0.007
10 | MAT2A (UniProt P31153) | inactive: -0.074 | inactive: -0.057 | inactive: 0.003 | inactive: -0.014 | inactive: 0.091 | inactive: -0.014 | inactive: -0.009 | inactive: 0.047 | inactive: 0.06 | inactive: 0.035
11 | MAST4 (UniProt O15021) | inactive: -0.029 | inactive: 0.034 | inactive: -0.073 | active: -0.757 | inactive: -0.112 | inactive: -0.004 | inactive: 0.131 | inactive: 0.09 | inactive: -0.087 | inactive: -0.003
12 | MFN2 (UniProt O95140) | inactive: -0.106 | inactive: 0.068 | inactive: -0.002 | inactive: -0.022 | inactive: -0.024 | inactive: -0.01 | inactive: -0.004 | inactive: 0.018 | inactive: -0.004 | inactive: 0.019
13 | MDC1 (UniProt Q14676) | inactive: -0.1 | inactive: -0.269 | inactive: 0.037 | inactive: 0.02 | inactive: 0.398 | inactive: -0.191 | inactive: -0.031 | inactive: -0.043 | inactive: 0.058 | inactive: -0.038
14 | MCRIP1 (UniProt I3L4Q0) | inactive: -0.067 | inactive: -0.099 | inactive: -0.049 | inactive: 0.019 | inactive: 0 | inactive: -0.029 | inactive: 0.027 | inactive: -0.066 | inactive: 0.028 | inactive: 0.018
15 | METTL7A (UniProt Q9H8H3) | inactive: -0.016 | inactive: -0.021 | inactive: 0.012 | inactive: -0.002 | inactive: 0.044 | inactive: 0.011 | inactive: 0.077 | inactive: 0.007 | inactive: 0.035 | inactive: 0.025
16 | MED15 (UniProt Q96RN5) | inactive: 0.026 | inactive: 0.092 | inactive: 0.032 | inactive: 0.034 | inactive: -0.071 | inactive: -0.076 | inactive: 0.002 | inactive: 0.054 | inactive: 0.048 | inactive: 0.081
17 | MED24 (UniProt O75448) | inactive: 0.02 | inactive: 0.167 | inactive: 0.046 | inactive: 0.003 | inactive: -0.007 | inactive: -0.127 | inactive: -0.054 | inactive: 0.165 | inactive: 0.206 | inactive: 0.031
18 | MGAT1 (UniProt P26572) | inactive: 0.039 | inactive: 0.001 | inactive: -0.002 | inactive: 0.021 | inactive: -0.008 | inactive: 0.06 | inactive: -0.063 | inactive: -0.06 | inactive: 0.042 | inactive: 0.001
19 | MAVS (UniProt Q7Z434) | inactive: -0.038 | inactive: 0.016 | inactive: 0 | inactive: 0.03 | inactive: -0.025 | inactive: -0.016 | inactive: 0.087 | inactive: 0.015 | inactive: 0.028 | inactive: 0.031
20 | MIA2 (UniProt Q96PC5) | inactive: -0.068 | inactive: -0.029 | inactive: -0.002 | inactive: -0.048 | inactive: -0.051 | inactive: -0.038 | inactive: -0.058 | inactive: 0.041 | inactive: 0.029 | inactive: -0.046
21 | MED20 (UniProt Q9H944) | inactive: -0.042 | inactive: 0.064 | inactive: -0.025 | inactive: -0.003 | inactive: 0.074 | inactive: -0.055 | inactive: 0.038 | inactive: -0.008 | inactive: -0.051 | inactive: 0.023
22 | MCL1 (UniProt Q07820) | inactive: -0.181 | inactive: -0.017 | inactive: 0.015 | inactive: -0.053 | inactive: 0.068 | inactive: -0.079 | inactive: -0.021 | inactive: -0.158 | inactive: 0.109 | inactive: 0.001
23 | MCTS1 isoform 3 (UniProt Q9ULC4) | inactive: -0.006 | inactive: -0.008 | inactive: 0.004 | inactive: 0.029 | inactive: 0.035 | inactive: -0.006 | inactive: 0.034 | inactive: -0.038 | inactive: 0.015 | inactive: -0.015
24 | MGAT2 (UniProt Q10469) | inactive: -0.078 | inactive: -0.029 | inactive: -0.004 | inactive: 0.017 | inactive: -0.02 | inactive: 0.016 | inactive: 0.047 | inactive: -0.048 | inactive: 0.019 | inactive: 0.048
25 | MCM5 (UniProt P33992) | inactive: 0.011 | inactive: 0.033 | inactive: -0.019 | inactive: -0.022 | inactive: -0.045 | inactive: -0.012 | inactive: 0.028 | inactive: 0 | inactive: -0.007 | inactive: 0.009
26 | METAP1 (UniProt P53582) | inactive: 0.019 | inactive: -0.038 | inactive: -0.046 | inactive: -0.005 | inactive: -0.04 | inactive: -0.018 | inactive: -0.012 | inactive: -0.039 | inactive: 0.05 | inactive: -0.003
27 | MCM4 (UniProt P33991) | inactive: -0.016 | inactive: 0.016 | inactive: -0.042 | inactive: -0.002 | inactive: -0.056 | inactive: -0.054 | inactive: 0.036 | inactive: 0.053 | inactive: -0.036 | inactive: 0.063
28 | MAX (UniProt P61244) | inactive: -0.036 | inactive: -0.029 | inactive: 0.059 | inactive: -0.06 | inactive: 0.051 | inactive: 0.032 | inactive: -0.001 | inactive: 0.022 | inactive: 0.011 | inactive: 0.063
29 | MCMBP (UniProt Q9BTE3) | inactive: 0 | inactive: 0 | inactive: -0.016 | inactive: -0.07 | inactive: -0.092 | inactive: 0.005 | inactive: 0.04 | inactive: 0.029 | inactive: -0.112 | inactive: 0.048

Record cards, as listed above. Order of values: log2 fold change [1] | log2 fold change [2] | log2 fold change [3] | log2 fold change [4] | log2 fold change [5] | log2 fold change [6] | log2 fold change [7] | log2 fold change [8] | log2 fold change [9] | log2 fold change [10]
MED20 (UniProt Q9H944) is entered as inactive: -0.042 | inactive: 0.064 | inactive: -0.025 | inactive: -0.003 | inactive: 0.074 | inactive: -0.055 | inactive: 0.038 | inactive: -0.008 | inactive: -0.051 | inactive: 0.023
MFN2 (UniProt O95140) is entered as inactive: -0.106 | inactive: 0.068 | inactive: -0.002 | inactive: -0.022 | inactive: -0.024 | inactive: -0.01 | inactive: -0.004 | inactive: 0.018 | inactive: -0.004 | inactive: 0.019
